Data source: PubChem BioAssay AID1224830 (NIAID, 2016)

- Purpose: 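Genes whose knock-down alters the TNF-alpha reporter response to LPS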 (primary screen)
- Cells: human THP-1 monocytic leukaemia cells, TNF dual-luciferase reporter clone, PMA-differentiated to macrophage-like cells
- Reagents: siRNA pool against human genes, 50 nM
- Duration: LPS for 4 h, given about 3 days after siRNA transfection
- Conditions: bacterial LPS (TLR4 ligand), 10 ng/ml
- Measurement: 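TNF firefly reporter luminescence divided by renilla, normalised to the plate median, then turned into a robust z-score for each replicate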
- Reading the numbers: TNF reporter robust z-score: higher = stronger TNF reporter response to LPS
- Rule for the call: 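Each well counts as active if its z-score is over 2.8 or under -1.5; controls are left without a call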
In all, the deposit lists about 18,000 reagents; below is a random part of them. In the full data, about 2,900 (16%) got an active call. 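Calls are made per well; low scores hint the gene aids the LPS response, high scores that it dampens it.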 Unmarked entries are inactive. Repeated entries: four replicate wells of each siRNA pool.

gene	TNF reporter robust z-score
EXT1	-1.08
EXT1	-0.33
EXT1	-0.61
EXT1	-0.53
UNC13A	-0.58
UNC13A	1.39
UNC13A	0.45
UNC13A	0.29
TBC1D23	0.85
TBC1D23	0.58
TBC1D23	2.53
TBC1D23	2.96 (active)
THOC2	-1.64 (active)
THOC2	-0.24
THOC2	-0.93
THOC2	-0.72
SERAC1	0.59
SERAC1	0.99
SERAC1	-0.56
SERAC1	0.72
LONP1	0.12
LONP1	-0.17
LONP1	0.33
LONP1	0.31
SNORC	-0.22
SNORC	0.77
SNORC	1.28
SNORC	1.89
VEZT	-1
VEZT	0.95
VEZT	-1.12
VEZT	-0.4
GPRIN2	-0.97
GPRIN2	-0.74
GPRIN2	-1.26
HNRNPA2B1	-2.14 (active)
HNRNPA2B1	-1.74 (active)
HNRNPA2B1	-2.3 (active)
HNRNPA2B1	-1.88 (active)
SLC12A5	1.38
SLC12A5	2.04
SLC12A5	1.83
SLC12A5	1.54
EPS15L1	0.12
EPS15L1	0.56
EPS15L1	0.13
EPS15L1	1.45
